From US5618693 come the findings set out here.

Sequences of proteins named here, by UniProt entry; tags and fusion partners are left off. Residues count along the entry.
UniProt P42224, 2-750: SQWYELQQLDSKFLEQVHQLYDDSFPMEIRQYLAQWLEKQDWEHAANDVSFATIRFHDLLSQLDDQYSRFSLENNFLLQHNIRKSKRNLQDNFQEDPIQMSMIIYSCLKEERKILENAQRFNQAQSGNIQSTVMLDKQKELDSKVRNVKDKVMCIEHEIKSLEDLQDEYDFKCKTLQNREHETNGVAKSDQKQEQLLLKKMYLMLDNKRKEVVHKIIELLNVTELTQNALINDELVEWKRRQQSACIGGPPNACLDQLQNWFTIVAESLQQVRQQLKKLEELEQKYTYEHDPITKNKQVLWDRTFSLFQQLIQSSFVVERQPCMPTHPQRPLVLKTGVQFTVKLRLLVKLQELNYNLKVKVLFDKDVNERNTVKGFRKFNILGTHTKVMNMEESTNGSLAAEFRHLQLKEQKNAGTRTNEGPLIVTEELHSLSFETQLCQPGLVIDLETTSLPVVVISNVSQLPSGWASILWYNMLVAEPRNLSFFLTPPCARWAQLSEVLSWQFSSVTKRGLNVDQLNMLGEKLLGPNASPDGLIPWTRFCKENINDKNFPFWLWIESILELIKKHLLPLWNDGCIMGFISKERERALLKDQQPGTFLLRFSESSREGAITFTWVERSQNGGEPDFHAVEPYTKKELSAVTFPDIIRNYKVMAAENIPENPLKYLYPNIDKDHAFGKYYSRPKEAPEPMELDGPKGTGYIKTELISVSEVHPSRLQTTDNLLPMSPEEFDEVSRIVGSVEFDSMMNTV
UniProt P40763, 2-770: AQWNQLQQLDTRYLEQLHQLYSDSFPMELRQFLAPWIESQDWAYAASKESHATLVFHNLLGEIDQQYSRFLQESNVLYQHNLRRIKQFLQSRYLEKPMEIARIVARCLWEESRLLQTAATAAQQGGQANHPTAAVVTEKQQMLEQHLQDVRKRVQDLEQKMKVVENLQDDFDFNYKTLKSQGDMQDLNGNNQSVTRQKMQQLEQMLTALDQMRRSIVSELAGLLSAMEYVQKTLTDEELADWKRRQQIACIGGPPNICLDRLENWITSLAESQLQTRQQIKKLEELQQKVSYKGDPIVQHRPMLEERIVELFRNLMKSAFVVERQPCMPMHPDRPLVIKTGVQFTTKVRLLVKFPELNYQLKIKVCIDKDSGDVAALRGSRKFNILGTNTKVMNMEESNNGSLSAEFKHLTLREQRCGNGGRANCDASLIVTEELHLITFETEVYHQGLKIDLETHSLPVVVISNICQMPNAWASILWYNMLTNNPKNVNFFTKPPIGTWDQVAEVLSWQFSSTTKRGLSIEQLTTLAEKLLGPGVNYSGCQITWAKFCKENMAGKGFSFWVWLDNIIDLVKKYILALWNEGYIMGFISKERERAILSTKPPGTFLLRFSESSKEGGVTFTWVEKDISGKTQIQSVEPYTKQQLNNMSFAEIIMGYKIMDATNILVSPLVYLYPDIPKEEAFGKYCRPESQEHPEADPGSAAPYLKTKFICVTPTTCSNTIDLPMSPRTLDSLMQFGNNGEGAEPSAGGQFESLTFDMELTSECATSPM

The target in data set [1] is Stat 1 (Y3/P1 complex) (Homo sapiens) (UniProt P42224). The experiment in a line: competition with a labelled probe. Particulars: 100-fold molar excess mutant does not compete P1/Y3; protein in an extract; variant of FcgRI IL-4 response element probe.
Data set [2] addresses T1, hStat 5 (Y2/P2 complex, MGF/Stat 5-related) (Homo sapiens) (UniProt P42229).
T1 sequence: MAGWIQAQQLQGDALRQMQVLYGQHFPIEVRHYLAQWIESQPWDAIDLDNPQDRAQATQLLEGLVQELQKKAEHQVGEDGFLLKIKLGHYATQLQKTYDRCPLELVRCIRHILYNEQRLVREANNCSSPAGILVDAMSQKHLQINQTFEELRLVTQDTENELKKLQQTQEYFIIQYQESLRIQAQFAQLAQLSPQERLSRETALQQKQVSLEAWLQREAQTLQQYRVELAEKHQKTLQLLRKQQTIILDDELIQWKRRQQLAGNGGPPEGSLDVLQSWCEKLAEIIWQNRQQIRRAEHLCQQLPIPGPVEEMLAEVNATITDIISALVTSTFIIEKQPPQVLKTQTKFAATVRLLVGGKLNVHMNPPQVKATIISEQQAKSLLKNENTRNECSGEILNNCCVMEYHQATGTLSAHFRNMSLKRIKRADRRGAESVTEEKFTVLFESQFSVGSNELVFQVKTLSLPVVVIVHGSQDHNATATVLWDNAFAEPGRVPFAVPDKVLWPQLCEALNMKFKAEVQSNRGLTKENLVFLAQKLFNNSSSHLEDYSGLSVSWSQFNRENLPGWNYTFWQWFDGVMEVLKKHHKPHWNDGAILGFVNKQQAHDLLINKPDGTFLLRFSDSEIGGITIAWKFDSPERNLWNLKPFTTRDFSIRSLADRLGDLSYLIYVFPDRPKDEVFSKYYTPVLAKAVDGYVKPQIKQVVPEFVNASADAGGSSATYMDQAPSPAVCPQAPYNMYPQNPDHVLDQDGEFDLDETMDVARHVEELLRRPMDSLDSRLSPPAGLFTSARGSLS
The experiment in a line: competition with a labelled probe. Particulars: 100-fold molar excess mutant does not compete (stated for Y2); protein in an extract; variant of FcgRI IL-4 response element probe.

For data set [3], the target named is Stat 1 (Y3/P1 complex) (Homo sapiens) (UniProt P42224). The data set is described as follows: EMSA. Particulars: Y3/P1 complex supershifted by Stat 1 antibody; competed by specific DNA; protein in an extract.
Data set [4] has as its target T1, hStat 5 (Y2/P2 complex, MGF/Stat 5-related) (Homo sapiens). The data set is described as follows: EMSA. Particulars: protein in an extract.
Data set [5] deals with Stat 3 (Y1 complex) (Homo sapiens) (UniProt P40763). The experiment in a line: EMSA. The note with it: constitutive Y1 complex altered by Stat 3 antibody; specific by competition; protein in an extract; protein details: native, YT cell nuclear extract.

Results from cells or extracts need not show a direct contact. For some assays here: Negatives hold for the conditions tested. For some assays here: Tags and fusion partners may be left off the protein sequences shown.

For “GTATCACCCAGTCAAGGAAC (double strand) [mutated FcgRI probe]”, the binding result in data set [1] and in data set [2] was “no binding” in each case.

With “GTATTTCCCAGAAAAGGAAC (double strand) [FcgRI IL-4 response element probe]”, the binding result in data set [3], in data set [4] and in data set [5] was “binds” in each case.
